From article PMC4434885
Results are given in words; binding and its absence hold for the method and conditions named. Binding can be weak; no strength is given.

The chains behind the UniProt entries cited, without tags or fusion partners.
UniProt O15131: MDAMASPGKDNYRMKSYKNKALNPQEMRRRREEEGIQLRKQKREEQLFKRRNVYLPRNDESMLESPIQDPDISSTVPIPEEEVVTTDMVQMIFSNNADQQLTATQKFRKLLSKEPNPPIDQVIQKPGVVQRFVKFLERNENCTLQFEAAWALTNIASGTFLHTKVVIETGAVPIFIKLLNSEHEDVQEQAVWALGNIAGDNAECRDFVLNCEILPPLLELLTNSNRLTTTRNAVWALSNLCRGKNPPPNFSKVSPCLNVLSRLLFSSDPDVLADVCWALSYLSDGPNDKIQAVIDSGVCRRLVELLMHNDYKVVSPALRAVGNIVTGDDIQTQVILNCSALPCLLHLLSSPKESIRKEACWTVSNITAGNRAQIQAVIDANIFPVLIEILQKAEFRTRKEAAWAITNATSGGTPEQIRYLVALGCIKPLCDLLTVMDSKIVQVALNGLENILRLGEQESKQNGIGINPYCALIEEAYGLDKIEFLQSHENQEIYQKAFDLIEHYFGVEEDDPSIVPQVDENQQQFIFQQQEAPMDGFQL

Experiments:
[1] = biological target: LexA-MSP58 NLS1 mutant (10A) (UniProt Q96EZ8); assay: two-hybrid; directed test in S. cerevisiae L40: LexA-MSP58 constructs (pBTM116) as bait, Gal4 AD-importins (pACT2) as prey; growth without histidine, X-Gal colony assay and quantitative liquid β-galactosidase assay
[2] = biological target: LexA-MSP58 NLS2 mutant (5A) (UniProt Q96EZ8); assay: as above

- binding [1]: binds
- binding [2]: binds
Substance: Gal4 AD-importin α6 (entire) (from UniProt O15131 1-539)
